Measurements: PubChem BioAssay AID623959 (National Center for Advancing Translational Sciences (NCATS), 2012)
Among all 1,400 compounds or so, fewer than 10 were called active. Another 8% or so got no clear call; they are omitted. The call rests on the fitted dose curve; in most records, active means well fitted curve in the direction sought with a large enough effect; inconclusive means small, poorly fitted or top-dose-only effect, or another doubt; inactive means no such curve, though single readings can be large or run the other way. The list shows a part of the results.

Sequences of proteins named here, by UniProt entry; tags and fusion partners are left off.
UniProt Q8NER1, whole entry, looked up: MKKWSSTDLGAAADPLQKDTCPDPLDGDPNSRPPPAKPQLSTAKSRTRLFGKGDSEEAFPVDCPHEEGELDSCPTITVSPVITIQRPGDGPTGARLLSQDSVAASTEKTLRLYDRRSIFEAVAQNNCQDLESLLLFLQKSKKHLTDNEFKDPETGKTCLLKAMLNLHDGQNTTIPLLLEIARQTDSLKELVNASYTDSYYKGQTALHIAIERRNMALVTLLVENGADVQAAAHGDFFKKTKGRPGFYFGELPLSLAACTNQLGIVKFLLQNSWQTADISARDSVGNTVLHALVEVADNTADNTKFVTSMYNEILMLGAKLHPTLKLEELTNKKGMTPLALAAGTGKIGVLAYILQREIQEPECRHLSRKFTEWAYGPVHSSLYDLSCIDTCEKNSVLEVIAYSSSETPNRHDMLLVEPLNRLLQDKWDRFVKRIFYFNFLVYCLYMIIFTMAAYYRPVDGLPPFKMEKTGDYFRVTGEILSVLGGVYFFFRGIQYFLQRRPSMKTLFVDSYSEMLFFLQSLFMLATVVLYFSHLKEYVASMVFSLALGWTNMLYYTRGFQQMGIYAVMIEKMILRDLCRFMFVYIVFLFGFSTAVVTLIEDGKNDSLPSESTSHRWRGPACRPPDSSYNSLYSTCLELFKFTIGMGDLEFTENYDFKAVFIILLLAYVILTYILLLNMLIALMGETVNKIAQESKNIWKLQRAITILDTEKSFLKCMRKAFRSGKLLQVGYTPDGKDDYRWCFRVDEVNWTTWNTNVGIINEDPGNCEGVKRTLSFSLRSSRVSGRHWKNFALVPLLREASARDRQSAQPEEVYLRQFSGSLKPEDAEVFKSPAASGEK

Each compound was assayed against Transient receptor potential cation channel subfamily V member 1 (Homo sapiens) (UniProt Q8NER1) (assay: qHTS Assay for Compounds that Act as Potentiators of the Vanilloid Receptor 1: Hit Validation). Details: TRPV1-expressing cells, Fluo-8 calcium influx, capsaicin EC20; series mostly up to 42.1 µM; activity change, positive = potentiation: at the top concentration.
Excerpt: The transient receptor potential ion channel, family V, number 1, (TRPV1) is one of the most important molecular transducers of painful stimuli and a potential target for analgesic drug development. Although recent clinical trials with orthosteric antagonists have not produced a successful drug because of a hyperthermia side effect and their tendency to block thermal noxious pain, this ion channel is undeniably well placed in the pain pathway, and the idea of blocking pain signals before they enter the CNS is an excellent concept and of proven efficacy when TRPV1 agonists are used. We propose a new approach involving allosteric modulation to impose an activity-dependent constraint within the context of inflammation and tissue damage that would alter the responsiveness of the channel in a way that an orthosteric vanilloid antagonist cannot achieve. We believe that the allosteric modulator approach has not been explored for this target. The main goal of this proposal is to identify additional, new, potent allosteric modulators of TRPV1 that can be used to investigate TRPV1 function. Our recent report provides evidence of proof of concept, but the compounds are just at the edge of utility in terms of potency. […] The question of whether they can be used as analgesic agents is complex, but if suitable compounds are identified then testing for analgesic properties will be conducted. Compounds identified as agonists were re-tested in the primary screen for hit validation. NIH Chemical Genomics Center [NCGC] NIH Molecular Libraries Probe Centers Network [MLPCN] MLPCN Grant: MH089480 Assay Submitter (PI): Michael Iadarola, National Institute of Dental and Cranofacial Research
Upon TRPV1 activation in TRPV1 cells, the channel opens and extracellular cations flow through the channel into the cytosol. A calcium binding dye (Fluo-8) becomes fluorescent when bound to calcium. This dye is pre-loaded into cells and is used as a marker for calcium influx. The amount of accumulated calcium is precisely quantified using the FDSS kinetic reader and the calcium dye. For the HTS assay, freshly prepared cells are plated at a density of 2000/well in 3 ul medium in 1536-well plates and cultured overnight at 35.5C. Cells will be loaded with 1 ul of the homogeneous calcium dye (ABD Bioquest) at room temperature for 40 to 90 minutes. Plates will be loaded into the FDSS kinetic reader and a 1 sec / cycle for 10 second baseline signal will be measured. Compound library will then be added with a pintool at 23 nl and measured kinetically for 3 minutes. This portion of the read is considered the agonist portion of the screen. Following the 3 minutes of incubation, an on board pipettor will deliver 1 ul of capsaicin for a final concentration equal to the EC20. Signal will be measured kinetically for an additional 2 minutes. This portion of the read is considered the allosteric enhancer portion of the screen. The FDSS reader has a standard filter set capable of measuring calcium bound Fluo-8 (ex=480 and em=520 nm).
Further: % of control where 0% means no effect.

Activity change, positive = potentiation, inactive:
COc1ccccc1C(=O)NC(=S)N1CCCc2ccccc21 -8.09%
O=[N+]([O-])c1cc([N+](=O)[O-])c(Oc2cc(F)cc(F)c2)cc1NN1CCCCC1 -37.5%
COc1ccc(C(=O)NCCN2CCOCC2)cc1[N+](=O)[O-] 2.34%
N#CC1=C(SCC(=O)Nc2cccc3cccnc23)NC(=O)C(C#N)C12CCCCC2 (stereo unspecified) 21.3%
Cc1cccc(NC(=S)NNC(=S)NCc2ccccc2)c1 1.76%
COc1ccc(OC)c(NC(=O)CCN2C(=O)c3ccccc3C2=O)c1 4.29%
Fc1ccc(CNC(=S)Nc2ccc(Cl)cc2Cl)cc1 -36.8%
Cc1ccc(S(=O)(=O)Nc2nnc(C3CCCCC3)s2)cc1 -5.02%
COC(=O)[C@@]12CCCCN1[C@H](c1ccc(-c3cc(C(C)=O)cs3)c(OC)c1)[C@H]1C(=O)N(C)C(=O)[C@H]12 -3.68%
CCOc1ccc(-c2cccc(NS(=O)(=O)c3cc([N+](=O)[O-])ccc3Cl)c2)nn1 2.27%
Cc1ccc(NC(=O)CCn2nc(C)cc2C)cc1 -6.67%
CC(=O)c1ccc(N2CCN(CC3CCCCC3)CC2)cc1 -9.43%
O=C(NCc1cccnc1)c1ccc(-c2ccc(Cl)cc2)o1 -37.5%
CCN(CC(=O)Nc1ccc(N2CCOCC2)cc1)Cc1nc2ccccc2c(=O)[nH]1 -4.07%
CCN1CCN(CC(=O)Nc2nc3ccccc3s2)CC1 -6.63%
CC(C)c1ccc(NC(=O)N2CCC(c3nc4ccccc4o3)CC2)cc1 -36.5%
CCN(CC)S(=O)(=O)c1cccc(C(=O)OCC(=O)c2ccc3c(c2)OCCO3)c1 2.85%
Fc1ccc(CNC(=S)NCc2ccccc2)cc1 -38.5%
Cc1ccccc1OCC(=O)OCC(=O)Nc1cc(S(C)(=O)=O)ccc1Cl -1.87%
CC(=O)c1ccc(N2CCN(C(=O)Nc3ccc(C(C)C)cc3)CC2)cc1 -1.99%
NC(=O)c1ccccc1N/C=C/C(=O)c1cccs1 11%
COC(=O)c1cc(OC)c(OC)cc1N1C(=O)CC(C)(C)CC1=O -2.61%
CCN(c1ccc(NC(=O)c2ccc(Cl)nc2)cc1)C(C)C -39.2%
CCN1CCN(Cc2ccc(NC(=O)c3ccc(C)c(NC(=O)c4nccnc4N)c3)cc2C(F)(F)F)CC1 5.5%
Cc1ccc(C(=O)CCC(=O)Nc2ccccc2F)cc1 -5.15%
C/C(=N\Nc1ccc2nncn2n1)c1ccc(Cl)s1 -32.9%
CCN(CC)S(=O)(=O)c1ccc(/C=C/C(=O)Nc2cccc(F)c2)cc1 -36.7%
O=C(Cc1cccs1)Nc1cccc(-c2ccc3nncn3n2)c1 6.87%
CCOc1ccc(-c2nnc(NC(=O)C3CCCC3)o2)cc1 -3.8%
COc1cccc(N2CCN(c3nc(C)cc(=O)[nH]3)CC2)c1 -39%
O=C(Cc1cn2ccsc2n1)Nc1nc2c(s1)CCCC2 7.96%
CCC1CCCCN1Cc1nc2ccccc2c(=O)n1CC(C)=O (stereo unspecified) -3.17%
CCOC(=O)[C@H]1[C@H]2COc3ccc(C)cc3[C@@H]2N2C(=O)c3ccc(F)cc3NC(=O)[C@@]12C -39.2%
NC(=O)CSc1nnnn1CC(CC(=O)O)c1ccccc1 (stereo unspecified) -2.45%
O=C(N/C(=C\c1ccco1)C(=O)N1CCCC(CO)C1)c1ccccc1 (stereo unspecified) 4.88%
COc1ccccc1NC(=O)c1nn(-c2ccccc2)ccc1=O -12.1%
O=C(NCc1ccc(F)cc1)N[C@@H](Cc1ccccc1)C(=O)O -5.73%
COC(C[C@@H](O)CC(=O)[C@@H](C)OCc1ccccc1)OC -1.16%
CCOc1cc(C(=S)N2CCCC2)ccc1O -21.4%
CC(C)c1ccc(NC(=S)NC2CC3C=CC2C3)cc1 (stereo unspecified) -39.8%
COc1cc(NS(=O)(=O)c2ccc(NC(=O)c3ccc(F)cc3)cc2)ncn1 24.6%
COC(=O)c1c(NC(=O)C(=O)N2CCOCC2)sc2c1CCCC2 -38.4%
CCOc1cc(/C=C2\SC(=S)N(C(C(=O)O)c3ccccc3)C2=O)ccc1O (stereo unspecified) -16.4%
O=C1CNC(=S)N1C(CO)c1ccccc1 (stereo unspecified) -12.1%
O=C(NC1CCS(=O)(=O)C1)c1cccc(S(=O)(=O)N2CCOCC2)c1 (stereo unspecified) 4.23%
CCCOc1ccc(C2Nc3cccc4cccc(c34)N2)cc1 -5.78%
CCCc1nc2nc(C)c(NS(=O)(=O)c3ccc([N+](=O)[O-])cc3)c(=O)n2[nH]1 3.7%
CC(=O)NS(=O)(=O)c1ccc(NC(=O)CC(C)c2ccccc2)cc1 (stereo unspecified) -3.07%
CCc1ccc(NC(=O)c2onc(C)c2Cl)cc1 -38.9%
O=C(NC(=S)Nc1ccccc1Br)c1ccco1 13.2%
Fc1ccc(CNc2ccccn2)cc1 -3.48%
CC(C)(C)c1ccc(OCCNC(=O)Cc2ccc(F)cc2)cc1 -39.5%
C=C(C(=O)Nc1ccccc1)c1ccc(C)cc1 -6.44%
Cc1cc(=O)oc2cc(OCC(=O)N3CCN(c4ccc(F)cc4)CC3)c(Cl)cc12 -5.74%
Cc1ncoc1C(=O)NC1CC(C)(C)Cc2c1cnn2-c1ccc(F)cc1 (stereo unspecified) -28.8%
O=C(NCCC1=CCCCC1)c1ccc([N+](=O)[O-])cc1 -37.8%
O=C(Nc1cccc(F)c1)[C@@H]1CCCN1 -3.75%
CCOC(=O)c1c(C)nn(-c2ncccc2NC(=O)CCC(=O)O)c1C -5.17%
Cc1nc(Nc2cccc(Cl)c2)c2oc3ccccc3c2n1 -38.3%
CON(C)c1nc(Oc2ccc(=O)[nH]n2)nc(N(C)C)n1 -4.27%
O=C(O)/C=C\C(=O)Nc1ccccc1C#Cc1ccccc1 -9.58%
CCc1nnc(NC(=O)Cc2ccc(Br)cc2)s1 -1.27%
Cc1ccc(C)c(SCC(=O)Nc2cccc(S(=O)(=O)NC3=NCCCCC3)c2)c1 7.23%
COc1ccccc1C(=O)NCC(=O)OC(C)C(=O)N(C)C1CCCCC1 (stereo unspecified) -21.2%
Cc1cc(C(=O)NCCC2=CCCCC2)ccc1[N+](=O)[O-] -35.5%
Cc1ccc(Nc2ncnc3c2oc2ccccc23)cc1 -37.9%
CCOC(=O)[C@H]1[C@H]2COc3ccc(OC)cc3[C@@H]2N2C(=O)c3ccc(Cl)cc3NC(=O)[C@@]12C -39%
O=S(=O)(N/N=C\c1c(F)cccc1Cl)c1ccc(Cl)cc1 -6.12%
CC(=O)Nc1ccc(Nc2ncnc3c2cnn3-c2ccc(C)cc2C)cc1 -39.7%
Cc1ccccc1NC(=O)CN1CCN(C)CC1 -3.8%
Cc1ccc(Cl)cc1N1CCN(S(=O)(=O)c2ccc3[nH]c(=O)c(=O)[nH]c3c2)CC1 1.54%

Among those listed so far, two have bromine.
Activity change, positive = potentiation, inactive:
O=C(NC(=S)Nc1ccccc1Br)c1ccco1 13.2%
CCc1nnc(NC(=O)Cc2ccc(Br)cc2)s1 -1.27%
